We go through two sequences from patent publication US20030082723.

Protein sequences can lack the tags named with them.

The target of this series is T1, Cre recombinase (bacteriophage P1) (UniProt P06956).
T1 sequence (looked up, limits assumed): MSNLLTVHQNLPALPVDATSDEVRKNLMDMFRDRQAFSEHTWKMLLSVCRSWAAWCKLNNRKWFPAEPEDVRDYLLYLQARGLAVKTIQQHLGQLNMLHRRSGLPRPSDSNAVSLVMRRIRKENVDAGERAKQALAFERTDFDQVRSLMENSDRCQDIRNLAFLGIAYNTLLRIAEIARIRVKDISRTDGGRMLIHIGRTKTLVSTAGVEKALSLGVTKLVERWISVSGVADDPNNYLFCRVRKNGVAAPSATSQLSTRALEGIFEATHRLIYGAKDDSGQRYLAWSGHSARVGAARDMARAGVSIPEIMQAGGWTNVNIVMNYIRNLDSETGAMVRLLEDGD
In words: activity in cells. The note with it: 30 C, less efficient in p2725, protein in cells, protein details: expressed from plasmid p2676 in E. coli, only the site is given.

As for “ATTCCATAACTTCGTATAGCATACATTATACGAACGGTATCTCG (double strand) [lox66 (with flanks)]”, the “activity on this sequence” value (efficient recombination with directly oriented lox71 in E. coli (p2722, p2724)) is recorded as “active”.

Consider “GCTTCTACCGTTCGTATAGCATACATTATACGAAGTTATCTCTT (double strand) [lox71 (with flanks)]”, for which the “activity on this sequence” value (efficient recombination with directly oriented lox66 in E. coli (p2722, p2724)) is “active”.
